Protein sequences, listed by entry. Tags and fused reporters are not part of them. Lines headed by an entry give the natural chain unless they say otherwise; changes in a name come on top.
UniProt E9AWP3: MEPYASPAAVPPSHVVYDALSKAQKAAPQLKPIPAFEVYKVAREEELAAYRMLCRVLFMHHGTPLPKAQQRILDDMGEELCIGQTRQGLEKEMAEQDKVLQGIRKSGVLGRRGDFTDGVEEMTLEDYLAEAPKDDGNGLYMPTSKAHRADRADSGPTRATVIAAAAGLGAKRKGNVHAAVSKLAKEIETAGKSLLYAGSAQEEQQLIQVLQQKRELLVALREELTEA
UniProt E9AMX7: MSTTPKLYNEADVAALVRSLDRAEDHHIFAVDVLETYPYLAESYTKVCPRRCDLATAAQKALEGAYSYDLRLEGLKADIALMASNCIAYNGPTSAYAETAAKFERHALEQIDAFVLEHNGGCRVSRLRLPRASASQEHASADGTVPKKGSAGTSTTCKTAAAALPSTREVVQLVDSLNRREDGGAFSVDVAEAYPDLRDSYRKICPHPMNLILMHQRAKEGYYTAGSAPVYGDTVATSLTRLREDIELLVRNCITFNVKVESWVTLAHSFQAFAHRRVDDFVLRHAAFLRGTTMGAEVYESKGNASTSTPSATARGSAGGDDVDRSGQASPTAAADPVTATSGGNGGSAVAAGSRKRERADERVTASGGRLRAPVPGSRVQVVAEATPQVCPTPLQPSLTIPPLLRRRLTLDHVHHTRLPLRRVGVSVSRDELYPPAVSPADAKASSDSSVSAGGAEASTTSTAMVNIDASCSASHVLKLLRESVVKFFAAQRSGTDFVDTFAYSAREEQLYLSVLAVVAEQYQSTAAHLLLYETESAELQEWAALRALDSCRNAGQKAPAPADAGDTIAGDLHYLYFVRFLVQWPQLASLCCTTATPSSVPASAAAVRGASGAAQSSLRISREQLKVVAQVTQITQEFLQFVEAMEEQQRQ

In article PMC9279504:

How the values were obtained:
Test in all cases: co-IP; non-crosslinking: lysis in 150 mM KCl with 0.2 % IGEPAL CA-630, anti-HA magnetic beads 1 h 4 C for 3xHA::mCherry bait; blot for Myc (BDF5 prey) and HA
[1] = molecular target: BDF8 (LmxM.33.2300) tagged with 3xHA::mCherry (L. mexicana) (UniProt E9B516)
[2] = molecular target: LmxM.08_29.1550 tagged with 3xHA::mCherry (L. mexicana) (UniProt E9ALR9)
[3] = molecular target: LmxM.22.0880 tagged with 3xHA::mCherry (L. mexicana) (UniProt E9AVS0)
[4] = molecular target: LmxM.24.0530 tagged with 3xHA::mCherry (L. mexicana) (UniProt E9AWP3)

Measured: binding

mNG::3xMyc::BDF5 (bromodomain factor 5, endogenously tagged) (from UniProt E9AMX7)
binds: all assays above

Results are given in words; binding and its absence hold for the method and conditions named. Binding seen in cells or lysates may run through a third protein. A result given as binding can be weak or reduced; the word gives no strength.
